# Values quoted from earlier work, collected in article PMC11052071, “Novel JAK Inhibitors to Reduce Graft-Versus-Host Disease after Allogeneic Hematopoietic Cell Transplantation in a Preclinical Mouse Model” (Molecules, 2024).
# Tested on: PKN1
# Conditions: murine and human whole-kinome analyses; cited from earlier work
smiles,measurement,value
"CCS(=O)(=O)N1CC(CC#N)(n2cc(-c3ncnc4[nH]ccc34)cn2)C1 [BARI, baricitinib, reference compound]",inhibition of off target PKN1,inhibited by BARI
